Source: ChEMBL document CHEMBL2029217, “Design, synthesis, and structure-activity relationships of novel spiro-piperidines as acetyl-CoA carboxylase inhibitors” (Bioorg Med Chem Lett, 2012)

Test: Lipophilicity, log D of the compound at pH 7.4
Conditions: buffer

`CCNC(=O)Nc1sc2ccccc2c1C(=O)N1CCC(N2CCCC3(CC(=O)N(CC)C3=O)C2)CC1` (racemic) showed a logD of 2.82.
